Data: article PMC7819943, “Rice protein-binding microarrays: a tool to detect cis-acting elements near promoter regions in rice”
Some of the results follow.

Sequences of proteins named here, by UniProt entry; tags and fusion partners are left off.
UniProt Q0JBA9, entry or part of it: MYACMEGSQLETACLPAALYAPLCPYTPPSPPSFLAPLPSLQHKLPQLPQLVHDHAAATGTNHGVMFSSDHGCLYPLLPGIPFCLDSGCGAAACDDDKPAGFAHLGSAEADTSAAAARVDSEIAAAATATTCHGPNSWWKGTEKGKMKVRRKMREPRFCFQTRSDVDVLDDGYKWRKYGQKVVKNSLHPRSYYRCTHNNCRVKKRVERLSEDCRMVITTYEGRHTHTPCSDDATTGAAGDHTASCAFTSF

Biological target: OsWRKY34 (Oryza sativa, UniProt Q0JBA9 1-250)
Assay: protein-binding microarray (RPBM); PBS, 2% BSA, 51.3 ng/ul salmon testes DNA, 50 uM zinc acetate, 200 nM TF, 25 C, 1 h; high values mean tight binding
Conditions: protein: recombinant; tags: N-terminal polyhistidine and DsRed monomer fusion (pET32a); label: CyDye5-dUTP incorporated in the synthesized complementary strand; 3' TTTTT single-stranded linker to array surface; dsDNA, one strand shown
How it was run: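 In PBS with 2% BSA, salmon testes DNA and 50 µM zinc acetate, 200 nM protein was incubated on a custom Agilent array at 25 °C for 1 h and then washed off. The array had been made double-stranded by primer extension with Cy5-dUTP and blocked with 2% BSA. The proteins were transcription factors fused N-terminally to polyhistidine and DsRed, expressed in E. coli BL21-CodonPlus and purified on Ni–NTA. The binding signal is per-feature fluorescence intensity (arbitrary units) from an Axon 4000B scanner.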

Sequence | binding signal
TCCCAGTAGCTCACTGCCTCTCTCGGTTTCTCGGTTCTCTCGGAGTCACCTAGTGCAG | 8200 fluorescence intensity (a.u.)
GCCTGAGCGACGCGCCGACCGGCCGAAGGCTCCGCGTTGACGGAGTCACCTAGTGCAG | 8660 fluorescence intensity (a.u.)
TCCATTTCCTCTCGTTCCTCTCTCTCTCTCTCTCTCTCTCCGGAGTCACCTAGTGCAG | 10300 fluorescence intensity (a.u.)
AGTTTTTCTAGTCCTTCTTAATGCATGTGTCACCTTCTAACGGAGTCACCTAGTGCAG | 10300 fluorescence intensity (a.u.)
TCTCCTACTCAGCATTGCGTCGTCGATGAAACCCTTTTTTCGGAGTCACCTAGTGCAG | 10700 fluorescence intensity (a.u.)
GAAACGGAAGATTTCGCCATGTTTTGCCCGCCTCCGCCCACGGAGTCACCTAGTGCAG | 11200 fluorescence intensity (a.u.)
CCACGTTTTCAGGCTGTTTGCAAATTTTCTCTCTCATCTACGGAGTCACCTAGTGCAG | 12200 fluorescence intensity (a.u.)
TGCCTGATGCTTCTTTTTTTTTTTTACTAATTAGTTTCTTCGGAGTCACCTAGTGCAG | 8300 fluorescence intensity (a.u.)
GCCTAGCCTATTCTCGCCGCCGTCTCCGCCGCCGCCGATGCGGAGTCACCTAGTGCAG | 8380 fluorescence intensity (a.u.)
GGCTGCCTGTGCATGGGAGGCGATGTGAGGGTGGGCAGGGCGGAGTCACCTAGTGCAG | 9440 fluorescence intensity (a.u.)
CCTTTTTGTTGGTCTCTGTTCTTGGGTTGGGTTTTCAGTCCGGAGTCACCTAGTGCAG | 20800 fluorescence intensity (a.u.)
TTTTCACTTCCTATCGAGGTCATTTGTCCTGTTAACTTAACGGAGTCACCTAGTGCAG | 8070 fluorescence intensity (a.u.)
CCTGTAATACTCTCTCCGTCTATAAATATTTGACGCCGTTCGGAGTCACCTAGTGCAG | 8560 fluorescence intensity (a.u.)
TATCGCTTACTACACCCTTATGCTAAAATAAGTTTTGTTTCGGAGTCACCTAGTGCAG | 10400 fluorescence intensity (a.u.)
TTCCAATTCGGATTTCTTGCTGTTGTTGTTGGGGTGTTCGCGGAGTCACCTAGTGCAG | 8770 fluorescence intensity (a.u.)
ACTATATTTGTTTCGACAGGTTTTTAATAGTATTTGGCCGCGGAGTCACCTAGTGCAG | 9500 fluorescence intensity (a.u.)
GCCGCTTGGACTGCACCTCTGCCGCTCGGGCCGCCAATCACGGAGTCACCTAGTGCAG | 8580 fluorescence intensity (a.u.)
CGTGCGACTTTTTCCTCTTGTCCCCTCGACAAATCTATGCCGGAGTCACCTAGTGCAG | 8620 fluorescence intensity (a.u.)
CCAAACACTTCACCGGTTCACCCTTTGTCCTATTCCGTTCCGGAGTCACCTAGTGCAG | 9550 fluorescence intensity (a.u.)
TCATCGCCATTTCTGACACTCCTTACCCAACTACAATGTCCGGAGTCACCTAGTGCAG | 8200 fluorescence intensity (a.u.)
CTCCACTCCCTCAACCTACTCGCGGTGCCGCCATTGCCGCCGGAGTCACCTAGTGCAG | 9260 fluorescence intensity (a.u.)

Sequence | binding signal
TATGGTTGGTTCGAAGTTCTTTTGCTGCTGAATGTTATATCGGAGTCACCTAGTGCAG | 13600 fluorescence intensity (a.u.)
AGACCCAATATTGCTCCAACCAGTGAAGCTACCGAGTTTCCGGAGTCACCTAGTGCAG | 8370 fluorescence intensity (a.u.)
CTACCCCTACCTGGCGCGCCAACTGTCGAAACTAGATTTCCGGAGTCACCTAGTGCAG | 9070 fluorescence intensity (a.u.)
TTTGCGGCCTTTGTTGTGAGACACTCAAAAGAACATGTACCGGAGTCACCTAGTGCAG | 8430 fluorescence intensity (a.u.)
TATTAGTTATGTTTGGAGTACTTGTCACATGTAAAGCATACGGAGTCACCTAGTGCAG | 8450 fluorescence intensity (a.u.)
TCTTTTAGATTTTTTTGTGATTTGTGGATGATTTTATTTCCGGAGTCACCTAGTGCAG | 9560 fluorescence intensity (a.u.)
CCGGTCCATCCATCCTGTATACTATGTTTAACTGATCTTGCGGAGTCACCTAGTGCAG | 10500 fluorescence intensity (a.u.)
GCTTTATATATCCATGCATGCACCTCCCTATCCTTCACACCGGAGTCACCTAGTGCAG | 8780 fluorescence intensity (a.u.)
TCGATTGGGGATTGGGGATTGGGGATCAGGAGGGATGGGGCGGAGTCACCTAGTGCAG | 20900 fluorescence intensity (a.u.)
TAGTTGCCAGCTCAACTGCTCTGTTGACCTGAAATGCTGCCGGAGTCACCTAGTGCAG | 8480 fluorescence intensity (a.u.)
ATTGTCGACCCATCCTTTGATTCTCGATCCAAATATTCAACGGAGTCACCTAGTGCAG | 8270 fluorescence intensity (a.u.)
TCTTTTTCCCTTTCGCATCTGTTTTTATCTCTTATTATCTCGGAGTCACCTAGTGCAG | 9440 fluorescence intensity (a.u.)
ATTGCTACTGAATCTGAAGCACCACCACTCCATCTCCATTCGGAGTCACCTAGTGCAG | 8860 fluorescence intensity (a.u.)
TTATCCCCGTTCTATCATTTTCTTTCATTTCATATAGTATCGGAGTCACCTAGTGCAG | 12800 fluorescence intensity (a.u.)
TTGTTCTTTTGTCTTTTACCTGTGTCTATTAGATTTTAATCGGAGTCACCTAGTGCAG | 13600 fluorescence intensity (a.u.)
CCCTACTTCTCTTCTTTCATAAAGTCATACCACCTTACTTCGGAGTCACCTAGTGCAG | 9330 fluorescence intensity (a.u.)
TCTCGTCCAGAAAGGCAATGGAATATACTCTACTGCTCGTCGGAGTCACCTAGTGCAG | 8620 fluorescence intensity (a.u.)
CGTAAACATCTGATGAGTACCTCACATGTTGAACATCTCCCGGAGTCACCTAGTGCAG | 8260 fluorescence intensity (a.u.)
GACCTTTGGGTAGGGGTGGGGATGGGGCGAAATTACTAAACGGAGTCACCTAGTGCAG | 30300 fluorescence intensity (a.u.)
ACCATCATCAGTATAAATCCGCCATCTCCTTTCTCGCGCCCGGAGTCACCTAGTGCAG | 9020 fluorescence intensity (a.u.)
TCCAACTTTTCCATCACATCAAAACTTTCCTACATACATACGGAGTCACCTAGTGCAG | 8430 fluorescence intensity (a.u.)

Three entries from above, with each value named:
CTACCCCTACCTGGCGCGCCAACTGTCGAAACTAGATTTCCGGAGTCACCTAGTGCAG
  binding signal: 9070 fluorescence intensity (a.u.)
ATTGTCGACCCATCCTTTGATTCTCGATCCAAATATTCAACGGAGTCACCTAGTGCAG
  binding signal: 8270 fluorescence intensity (a.u.)
TTGTTCTTTTGTCTTTTACCTGTGTCTATTAGATTTTAATCGGAGTCACCTAGTGCAG
  binding signal: 13600 fluorescence intensity (a.u.)

The list continues.

Sequence | binding signal
GCGCCGATCGATCGATGCAGCACTGGTATCATCTTCTTGTCGGAGTCACCTAGTGCAG | 8530 fluorescence intensity (a.u.)
ACAGCCAAACATACCCGTAATTTATAGTTCCAATATTTTCCGGAGTCACCTAGTGCAG | 8560 fluorescence intensity (a.u.)
TTCCCTGTAACTCTCCCCATTCCTTCCCTTGGCGTAAAATCGGAGTCACCTAGTGCAG | 9300 fluorescence intensity (a.u.)
TTCAGTTTTTCTGCTTTTTTTCTTGTGTTTGATCTGAATACGGAGTCACCTAGTGCAG | 9340 fluorescence intensity (a.u.)
CAAAATATTAACCATCCTGATTTTTCTGTTATTCATTCCTCGGAGTCACCTAGTGCAG | 9510 fluorescence intensity (a.u.)
CTATTGGGATCCACCTATCAGCTGCTATCTCCTTTCTTCACGGAGTCACCTAGTGCAG | 10500 fluorescence intensity (a.u.)
ATTCATGTCACCCACTTCTCCCTTGTCTTCTCACCACCCACGGAGTCACCTAGTGCAG | 9160 fluorescence intensity (a.u.)
TCCGTCCTCGTCACCGCCGCCACCGCCGCCCCACCGCCAGCGGAGTCACCTAGTGCAG | 8680 fluorescence intensity (a.u.)
TCGTTTGTAGCTAGTTGCTGTGTGTTCTTGCTTCCGGTTTCGGAGTCACCTAGTGCAG | 9120 fluorescence intensity (a.u.)
GGGAATAACAATGGGAACGTCACCCCTTCCTGTACGGTTTCGGAGTCACCTAGTGCAG | 9050 fluorescence intensity (a.u.)
CACCGTTAACTTTTTATTACGTATTTGACCATTTGTCTTACGGAGTCACCTAGTGCAG | 10200 fluorescence intensity (a.u.)
TATTTTCTTTTCTGTTGGTAGTACATTCTTTTCCTTTTTCCGGAGTCACCTAGTGCAG | 11200 fluorescence intensity (a.u.)
CGTGTTGCTGCCTGTGGGCTACCCGGTCTATACATGCAAACGGAGTCACCTAGTGCAG | 9500 fluorescence intensity (a.u.)
CTGCAATATTGTTTATTCATCTTGTTTTCTCCTTTTTTTACGGAGTCACCTAGTGCAG | 13500 fluorescence intensity (a.u.)
TTTTGGGGATAGATTTGCGCTTTTGGTGGGTGGGTTTGGGCGGAGTCACCTAGTGCAG | 14200 fluorescence intensity (a.u.)
AATTTGTGTGTAATTTTTTAGGATTTGTGATGTATTTGATCGGAGTCACCTAGTGCAG | 9210 fluorescence intensity (a.u.)
ACACTCGCACACCCACCACACGCCGTCTCTCTCAAAACAACGGAGTCACCTAGTGCAG | 11500 fluorescence intensity (a.u.)
CTTTGGCTGGTTCTACTATTTACTACACCATCTGTTTTAACGGAGTCACCTAGTGCAG | 10800 fluorescence intensity (a.u.)
TTACTACCAATCTGCTGGAGTGGCTCAGTTGCTCATGAGACGGAGTCACCTAGTGCAG | 8330 fluorescence intensity (a.u.)
GGGGAGGGAGATCTCCTCTCTTCTCTTGTTCTGTTTCTTGCGGAGTCACCTAGTGCAG | 12000 fluorescence intensity (a.u.)
TTTCATACACATACGTATTACATATTGCATATACCTATTTCGGAGTCACCTAGTGCAG | 8610 fluorescence intensity (a.u.)

Sequence | binding signal
TTAAAGTTGACCAAATTTATAGAAAAATTTAGCAACATCTCGGAGTCACCTAGTGCAG | 8820 fluorescence intensity (a.u.)
ACTCGATGCGGCCCCACCTGCCGGCCACACTCACCTGCTCCGGAGTCACCTAGTGCAG | 8340 fluorescence intensity (a.u.)
AGCTACCTCACACGACAGTATTGGTTTTCCGGCCGTTTTCCGGAGTCACCTAGTGCAG | 12400 fluorescence intensity (a.u.)
CTTTTGGTTATAGCATCATTTTACATTGCAGCTAAAGTTCCGGAGTCACCTAGTGCAG | 9160 fluorescence intensity (a.u.)
ACCCACTGATCACGAAATCCACACACTGGCCACATCCAAACGGAGTCACCTAGTGCAG | 8340 fluorescence intensity (a.u.)
CTCTCTCTCTCTGTCTCTCTTCTTCTCGTTTGCATCTTCTCGGAGTCACCTAGTGCAG | 10900 fluorescence intensity (a.u.)
CCAACCGCTTTCCTTTTGTCCACCGATTGCTCTCTCTTTGCGGAGTCACCTAGTGCAG | 9210 fluorescence intensity (a.u.)
CCGCCGGCCATCTCGCTCTTGCACGCGCTCGCCGGTAGACCGGAGTCACCTAGTGCAG | 8140 fluorescence intensity (a.u.)
ACACATCTTCTTCTTCCTGAGCTTAGCATAGTTAGCTTGCCGGAGTCACCTAGTGCAG | 8500 fluorescence intensity (a.u.)
GGAGAAGCTGCAGCCGCTATTACATCCCTTGCCATCTCCACGGAGTCACCTAGTGCAG | 9300 fluorescence intensity (a.u.)
TGTGGTTAAAGTGAGATGATCGTAAGTATTATTGCGACTACGGAGTCACCTAGTGCAG | 8330 fluorescence intensity (a.u.)
CCAGTTCTTGAGTTTGCTTCTGTGAGCTTTCGTCATATTACGGAGTCACCTAGTGCAG | 8590 fluorescence intensity (a.u.)
GGCTGGTATTATGATCTTGTTGCTATTTCTTGATCAATTTCGGAGTCACCTAGTGCAG | 10600 fluorescence intensity (a.u.)
AGTAACTTTGAATTCCGCTAATGTTTTGGGTTTTGGGTACCGGAGTCACCTAGTGCAG | 9420 fluorescence intensity (a.u.)
CTTGAGTTTTGGCCGTCTATCACCCGTACGTCGCACGAAGCGGAGTCACCTAGTGCAG | 8810 fluorescence intensity (a.u.)
CTCCTACAGTCGTCGTCCTCCGGCCACCGCCGTCCTCTGCCGGAGTCACCTAGTGCAG | 9010 fluorescence intensity (a.u.)
GTGGTGGAAGGTACGATTTGGAGAGACTTTGAGATGGCGTCGGAGTCACCTAGTGCAG | 8890 fluorescence intensity (a.u.)
TTGTTTCTTCTCTGCTTCGGCTGGGGACTGACTATAAATGCGGAGTCACCTAGTGCAG | 8410 fluorescence intensity (a.u.)
TTAATGTGTGTTCCTGTTGTGGTCTTGTGGATGGTGGATACGGAGTCACCTAGTGCAG | 11800 fluorescence intensity (a.u.)
GTTTGTTTTTGAAAATATATATCTGTATTTGAGTAGGGTTCGGAGTCACCTAGTGCAG | 9630 fluorescence intensity (a.u.)
GATCCAAGAGTGGAGAAGGAGAGGGGTGGGGAGCCGGCGACGGAGTCACCTAGTGCAG | 9460 fluorescence intensity (a.u.)
